# Test results taken from the supplement of paper PMC5407854, “Inhibitor of ppGalNAc-T3-mediated O-glycosylation blocks cancer cell invasiveness and lowers FGF23 levels” (eLife, 2017).
# The full ranking holds about 1,700 compounds; the median of “T2 sensor activation Q score (MG/GFP ratio z-score vs DMSO controls)” is about 0.3, and the highest 2% start at about 1.9. The list shows a part of the results.
# Test system: ppGalNAc-T2 sensor
# Test: T2 sensor activation Q score (MG/GFP ratio z-score vs DMSO controls) (SD units); higher = more sensor activation (inhibition of ppGalNAc-T2 glycosylation)
# Settings: HEK293 sensor cells; 10 µM; 6 h
# Experimental: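 Cells were treated with compound at 10 uM for 6 h, then MG/GFP ratio was read by flow cytometry (10,000 cells per well, duplicate wells). Q = (R - R_neg)/SD_neg relative to DMSO vehicle controls; the signal rises when the glycosyltransferase is inhibited.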
row,Compound,T2 sensor activation Q score
1,Cc1ccccc1NC(=O)C(=O)Nc1ccccc1C,1.7
2,CSc1c(N(C)C)c(=O)c1=S,-2.95
3,O=c1cc(CO)[nH]nc1CO,-0.95
4,CN(C)c1nc(=NCc2ccco2)ss1,1.75
5,CN(C)c1ccc2c(c1)Sc1cc(N(C)C)ccc1N2C(=O)c1ccccc1,2.55
6,Cn1ncc2c(Nc3ccccc3Cl)nc(Nc3ccccc3Cl)nc21,0.65
7,CC1=C(c2ccccc2)C=NNCC1=O,0.1
8,O=C(Nc1cccc2c1N(C(=O)c1ccco1)CCC2)c1ccco1,0.1
9,O=[N+]([O-])c1[nH]cnc1/C=C/c1ccccc1,0.4
10,CC(O)c1nc2c(c(=O)n(C)c(=O)n2C)n1C (centres undefined),1.35
11,NC(=O)c1ccccc1OCC(=O)Nc1ccc(Cl)c(Cl)c1,0.1
12,CO[C@H]1C(=O)[C@]2(C)[C@@H](OC)C[C@H]3OC[C@@]3(OC(C)=O)[C@H]2[C@H](OC(=O)c2ccccc2)[C@]2(O)C[C@H](OC(=O)[C@H](O)[C@@H](NC(=O)OC(C)(C)C)c3ccccc3)C(C)=C1C2(C)C,-0.5
13,Nc1ncnc2c1ncn2[C@@H]1C=C(CO)[C@@H](O)[C@H]1O,0.95
14,CCC(C)Nc1nc2c(c(=O)n(C)c(=O)n2C)n1C (centres undefined),1.55
15,O=C(NC(=S)Nc1cccc2c(O)cccc12)c1cccc(Br)c1,-0.9
16,NC(=O)NO,-0.75
17,CCOc1cc2c(Cl)ncnc2c(OCC)c1OCC,-0.9
18,OC[C@@H]1CCC[C@H](n2cnc3c(=S)nc[nH]c32)O1,0.75
19,CC[C@]1(O)C[C@@H]2CN(CCc3c([nH]c4ccccc34)[C@@](C(=O)OC)(c3cc4c(cc3OC)N(C)[C@H]3[C@@](O)(C(=O)OC)[C@H](OC(C)=O)[C@]5(CC)C=CCN6CC[C@]43[C@@H]65)C2)C1,2.05
20,CCOC(=O)Nc1ccc2nc(N3CCCCCC3)sc2c1,0.95
21,CC(C)(C)c1ccc(OC(=O)c2ccccc2)cc1,0.95
22,CN=C1C=C/C(=N/N=c2/ccn(O)cc2C)C=C1C,0.65
23,Nc1nc(F)nc2c1ncn2C1OC(COP(=O)(O)O)C(O)C1O (centres undefined),-0.75
24,CCOC(=O)c1c(C)nc(C)c(C(=O)OCC)c1-c1cccnc1,0.2

row,Compound,T2 sensor activation Q score
1,Cc1cc2c3ccccc3ncn2n1,-0.25
2,Cc1cc2c(c(C#N)c1C)NC=NC2C (centres undefined),1.1
3,c1ccc2c(c1)Nc1ccncc1S2,-0.35
4,CN(C)c1ccc(N=Nc2cccc3ccoc23)cc1,1.45
5,Cn1c(N)c(N=Nc2ccc(S(N)(=O)=O)cc2)c(=O)n(C)c1=O,1.65
6,COC(=O)c1ccc(Cn2cnc3c(Cl)ncnc32)cc1,1.6
7,CN1CCN(C2=NCCO2)CC1,-2.9
8,CC(C)CCCCCCCCCCCCC(=O)NCC(=O)NC1C(C)OC(Nc2ncnc3nc[nH]c23)C(O)C1O (centres undefined),8.6
9,CCCNC(=S)Nc1ccccc1,-0.3
10,O=C1NC(=S)S/C1=C\c1ccccc1C(=O)O,-1.45
11,c1coc(CNc2ncnc3[nH]ncc23)c1,0.7
12,CN1CCC(n2[nH]c(-c3ccccc3)c(Cc3ccccc3)c2=O)CC1,-0.2
13,CC1=Nc2ccccc2/C1=C\c1c(C)[nH]c2ccccc12,-0.55
14,COC(=O)N1C2CCCCC2=NN(c2ccccc2)N1C(=O)OC (centres undefined),-1.9
15,CCOc1ccc(NC(=O)c2cc3ccccc3cc2O)cc1,1.65
16,CCOC(=O)Cc1csc2nc(-c3ccccc3)nn12,0.7
17,N#CN=C(N)c1ccccc1,1
18,O=C1c2cccc(Oc3ccccc3)c2C(=O)c2cccc(Oc3ccccc3)c21,0.25
19,CCCCCCCC1(C)NC(=O)NC1=O (centres undefined),1.7
20,Cc1c2cnccc2c(C)c2c1c1ccccc1n2CCOC(=O)c1ccccc1,0.1
21,Cc1nc(C(N)=O)nc2ccccc12,1.3
22,C(=N\n1cnnc1)/c1ccc2c(c1)CCC2,0.4
23,COC(=O)c1cc2c(n1S(=O)(=O)c1ccc(C)cc1)C(=O)C(=O)c1[nH]cc(C(=O)OCc3ccccc3)c1-2,2
24,CC(C)(C)c1ccc(C(=O)Nc2ccc(S(N)(=O)=O)cc2)cc1,0.65

# Structures shown so far containing four or more nitrogen atoms, in the order listed:
row,Compound,T2 sensor activation Q score
6,Cn1ncc2c(Nc3ccccc3Cl)nc(Nc3ccccc3Cl)nc21,0.65
10,CC(O)c1nc2c(c(=O)n(C)c(=O)n2C)n1C (centres undefined),1.35
13,Nc1ncnc2c1ncn2[C@@H]1C=C(CO)[C@@H](O)[C@H]1O,0.95
14,CCC(C)Nc1nc2c(c(=O)n(C)c(=O)n2C)n1C (centres undefined),1.55
18,OC[C@@H]1CCC[C@H](n2cnc3c(=S)nc[nH]c32)O1,0.75
19,CC[C@]1(O)C[C@@H]2CN(CCc3c([nH]c4ccccc34)[C@@](C(=O)OC)(c3cc4c(cc3OC)N(C)[C@H]3[C@@](O)(C(=O)OC)[C@H](OC(C)=O)[C@]5(CC)C=CCN6CC[C@]43[C@@H]65)C2)C1,2.05
22,CN=C1C=C/C(=N/N=c2/ccn(O)cc2C)C=C1C,0.65
23,Nc1nc(F)nc2c1ncn2C1OC(COP(=O)(O)O)C(O)C1O (centres undefined),-0.75
5,Cn1c(N)c(N=Nc2ccc(S(N)(=O)=O)cc2)c(=O)n(C)c1=O,1.65
6,COC(=O)c1ccc(Cn2cnc3c(Cl)ncnc32)cc1,1.6
8,CC(C)CCCCCCCCCCCCC(=O)NCC(=O)NC1C(C)OC(Nc2ncnc3nc[nH]c23)C(O)C1O (centres undefined),8.6
11,c1coc(CNc2ncnc3[nH]ncc23)c1,0.7
14,COC(=O)N1C2CCCCC2=NN(c2ccccc2)N1C(=O)OC (centres undefined),-1.9
22,C(=N\n1cnnc1)/c1ccc2c(c1)CCC2,0.4

# Additional results.

row,Compound,T2 sensor activation Q score
1,COc1ccc(OC)c(NC(=O)c2cc3oc4ccccc4c3cc2O)c1,0
2,Cn1ncc2c(Nc3ccc([N+](=O)[O-])cc3)nc(Cl)nc21,-0.5
3,Clc1nc(NCCc2ccccc2)c2cn[nH]c2n1,0.9
4,CC[C@@]1(O)C(=O)OCc2c1cc1n(c2=O)Cc2cc3c(CN(C)C)c(O)ccc3nc2-1,0.9
5,O=C1C2CC3N1CCC31c3ccccc3-n3c1c2ccc3=O (centres undefined),0.7
6,CC(=O)O[C@]1(C(C)=O)CC[C@H]2[C@@H]3C=C(C)C4=CC(=O)CC[C@]4(C)[C@H]3CC[C@@]21C,-1.55
7,Cc1nc2nc(C(F)(F)F)[nH]c2nc1C,0.45
8,Cc1c2oc3c(C)ccc(C(=O)N[C@@H]4C(=O)N[C@H](C(C)C)C(=O)N5CCC[C@H]5C(=O)N(C)CC(=O)N(C)[C@@H](C(C)C)C(=O)O[C@@H]4C)c3nc-2c(C(=O)N[C@@H]2C(=O)N[C@H](C(C)C)C(=O)N3CCC[C@H]3C(=O)N(C)CC(=O)N(C)[C@@H](C(C)C)C(=O)O[C@@H]2C)c(N)c1=O,-1.15
9,O=C(Nc1ccc(Cl)c(Cl)c1)Nc1ccc([N+](=O)[O-])cn1,0.15
10,COC(=O)C(=Cc1ccccc1[N+](=O)[O-])C(=O)OC,-1.4
11,O=C1CSCc2nc3ccccc3n21,0.8
12,Clc1nnc(NC2CCCCC2)c(Cl)c1Cl,0.15
13,Cc1ccc(-c2cc(C(=O)O)c3ccccc3n2)c(C)c1,0.9
14,COc1ccccc1/C=C(\C#N)C(=O)O,1.4
15,C=CCNC(=O)C1COc2ccccc2O1 (centres undefined),0.5
16,Cn1c2ccccc2c2ccc3c(c21)C(=O)C=CC3=O,-0.1
17,Cc1c2cc(O)c(=O)cc-2oc2cc(O)c(O)cc12,-3.95
18,CCOC(=O)c1cc(-c2cccnc2)nc2c(Cl)cc(Cl)cc12,0.35
19,CC(C)Cn1cnc2c(N)nc3ccccc3c21,-0.8
20,c1ccc(-c2nnc(-c3ccccc3)nn2)cc1,1.15
21,O=C(Nc1ccccc1-c1ccccc1)C(=O)Nc1ccccc1-c1ccccc1,1.5
22,O=C(c1cccnc1)c1cc(-c2ccccn2)c(=O)n2ccccc12,0.3
23,c1ccc(-c2n[nH]c(-c3ccccn3)n2)nc1,-1.85
24,CCCc1nc(NC(=O)c2ccccc2)nc(NC(=O)c2ccccc2)n1,0.9

row,Compound,T2 sensor activation Q score
1,COc1cccc2c1C(CO)N1C(C#N)C3CC(C(=O)O)C(C1C2)N3C (centres undefined),-0.75
2,Nc1cnc(Nc2ccc(Br)cc2)nc1N,0
3,OCCCCc1nccc2c1[nH]c1ccccc12,1.15
4,c1cc(CN2CCCNCCNCCCNCC2)ccc1CN1CCCNCCNCCCNCC1,-1.75
5,O=C(/C=C/c1ccc2ccccc2n1)c1cc(Cl)ccc1O,-0.65
6,COC(=O)CC1(C(=O)OC)Nc2cc(Cl)c(Cl)cc2S(=O)(=O)N1O (centres undefined),0.65
7,O=C(/C=C/C(=O)N1CCc2ccccc2C1)N1CCc2ccccc2C1,-0.75
8,CCOc1ccc(NC(=O)Nc2cc(C(C)C)ccc2C)cc1,1.15
9,N#Cc1nnn2c1nc(N)c1c(Cl)cccc12,1.5
10,COc1cc(NC(C)=O)c2ncccc2c1Br,0.15
11,O=C(Nc1ccc(F)cc1)OCCOc1ccc(Br)cc1,1.05
12,CC1(C)CCSC(/C=C/c2ccccc2)=N1,-1.15
13,OCC1(CO)CC2(C1)CC(CO)(CO)C2,0.65
14,Nc1nc(SCc2ccccc2)sc1C(=O)N1CCCCC1,-0.35
15,NCC(=O)CCC(=O)O,-1.95
16,CCOCCc1c(O)nc(SC)[nH]c1=O,0.65
17,Cn1c(=O)c2[nH]c(COc3ccc(C(C)(C)C)cc3)nc2n(C)c1=O,0.25
18,COc1ccc2c(c1)C(=O)C1NC(=O)NC(=O)C1(Br)N2 (centres undefined),1.15
19,NC(=O)c1cc2c3ccccc3ccn2c1-c1ccccc1,1.8
20,COc1cccc(/C=C/c2nccc3ccccc23)c1OC,1.25
21,CC1CO/C(=C2\C(=O)OCC2C)C1 (centres undefined),-0.65
22,CC1CC(C)(C)NC2(CCCC2)N1 (centres undefined),-0.55
23,COc1ccc2c(c1)CCN1C2CCN2C(=O)CCC21 (centres undefined),0.9
24,COC(=NC(C)C)NC(C)C,-0.75

# Structural class: the compounds so far containing fluorine.
row,Compound,T2 sensor activation Q score
23,Nc1nc(F)nc2c1ncn2C1OC(COP(=O)(O)O)C(O)C1O (centres undefined),-0.75
7,Cc1nc2nc(C(F)(F)F)[nH]c2nc1C,0.45
11,O=C(Nc1ccc(F)cc1)OCCOc1ccc(Br)cc1,1.05

# Remaining list, next part.

row,Compound,T2 sensor activation Q score
1,Cc1nccnc1Sc1ccccc1,-0.2
2,CC(C)n1cnc2c(=S)nc[nH]c21,-0.3
3,COc1ccc2c(n1)Sc1nc3ccccc3nc1N2,-5.6
4,O=C(O)C1C2OC3C(OC(=O)C31)C2Br (centres undefined),0
5,Cc1ccn(C)c(=N)c1,0.15
6,C#CCSc1nnnn1-c1ccc(Br)c(C)c1,-1.35
7,Cn1c(N)c(C(=O)/C=C/c2ccccc2)c(=O)[nH]c1=O,0.45
8,NC1=NC(c2ccc(Cl)cc2)N(c2ccc(S(N)(=O)=O)cc2)C(N)=N1 (centres undefined),0.3
9,Oc1ccc2ccccc2c1N=Nc1ccc(F)cc1,0.05
10,Cc1nnc(-n2cccc2)s1,1.4
11,O=C(C=Cc1ccccc1Cl)c1ccc(O)cc1,0.75
12,COc1cc2c(NCCCCCO)ncnc2c(OC)c1OC,0.4
13,OC(c1cc(-c2ccc(Cl)cc2)nc2ccccc12)C1CCCCN1 (centres undefined),1.2
14,O=C1/C(=C\c2ccc([N+](=O)[O-])cc2)CCc2ccccc21,0.65
15,CNc1ncnc2c1cnn2C1CCCCO1 (centres undefined),0.05
16,NC(=O)c1ccccc1NC(=O)c1ccccc1Cl,0.55
17,COc1ccc(Nc2cc(C)nc(N)n2)cc1,-0.15
18,O=P(O)(O)c1cc(-c2ccccc2)oc1-c1ccccc1,0.85
19,Cc1nc(NCc2ccccc2)c2cc[nH]c2n1,0.3
20,COc1cc(C(=O)C(=O)c2cc(OC)c(O)c(OC)c2)cc(OC)c1O,0.45
21,Cc1cc(O)c(C(C)C)cc1NC(=O)Nc1cccc2ccccc12,0.5
22,CC(=O)[C@@]1(O)[C@H](C)C[C@H]2[C@@H]3C=C(C)C4=Cc5c(cnn5-c5ccccc5)C[C@]4(C)[C@H]3[C@@H](O)C[C@@]21C,0.4
23,COc1cc(Nc2c(C#N)cnc3cc(OCCCN4CCN(C)CC4)c(OC)cc23)c(Cl)cc1Cl,-1.6
